Data as given in PubChem BioAssay AID1347084 (National Center for Advancing Translational Sciences (NCATS), 2019).
“And” between values parts separate entries of the source, which are not always exact repeats. Identical values can stand only once. This list was built around the results that the source calls inconclusive (neither active nor inactive); the mix of calls is not that of the screen. Where the call is inconclusive, the potency comes from a doubtful curve fit. The source made the active and inactive calls. The call rests on the fitted dose curve.

Experiment: qHTS for Inhibitors of the Functional Ribonucleoprotein Complex (vRNP) of Lymphocytic Choriomeningitis Arenaviruses (LCMV): LCMV Confirmatory Screen - GLuc reporter signal
Settings: LCMV minigenome vRNP, Gaussia luciferase reporter; series mostly up to 53.9 µM; activity change, negative = inhibition: at the top concentration

Row | Compound | Potency | activity change, negative = inhibition
1 | Cc1cnc(NC(=O)C2=C(O)c3ccccc3S(=O)(=O)N2C)s1 | inconclusive: 24.3 µM [inhibitor, partial curve, poor fit] | –
2 | CCC(c1ccc(O)cc1)C(CC)c1ccc(O)cc1 (stereo unspecified) | inconclusive: 19.3 µM [inhibitor, partial curve, poor fit] | –
3 | O=C(CCCN1CCN(c2ccc(F)cc2)CC1)NC1c2ccccc2CSc2ccccc21 (stereo unspecified) | inconclusive: 9.68 µM [inhibitor, full curve, poor fit] | –
4 | CC(C)=CCC/C(C)=C/CC/C(C)=C/CC[C@]1(C)CCc2c(C)c(O)c(C)c(C)c2O1 | – | inactive: -18.6% [at 6 µM]
5 | O=c1ccc2ccc(O)c(O)c2o1 | inconclusive: 43.2 µM [inhibitor, single point] | –
6 | O=C1Cc2cc(CCN3CCN(c4nsc5ccccc45)CC3)c(Cl)cc2N1 | inconclusive: 12.2 µM [inhibitor, partial curve] | –
7 | C[C@]12CC[C@@H](O)C[C@H]1CC[C@@H]1[C@H]2CC[C@]2(C)C(=O)CC[C@@H]12 | inconclusive: 31.1 µM [inhibitor, single point] | –
8 | COc1ccc(Cc2nccc3cc(OC)c(OC)cc23)cc1OC | active: 1.93 µM and active: 3.43 µM | –
9 | CC(O)(P(=O)(O)O)P(=O)(O)O | – | inactive: -11.6%
10 | Nc1nc2ccc(OC(F)(F)F)cc2s1 | inconclusive: 24.3 µM [inhibitor, partial curve, poor fit] | –
11 | O=c1[nH]c2ccccc2n1C1CCN(CCCC(c2ccc(F)cc2)c2ccc(F)cc2)CC1 | inconclusive: 4.32 µM [inhibitor, partial curve, poor fit] | –
